Some of the results follow.
assay: growth inhibition of WT strain, primary screen, mitochondrial fusion inhibitor project, WT and mutant strains, chemical genetic (AID 1362); conditions: mitochondrial fusion phenotypic screen, at 10 µM; further: tested in S. cerevisiae

| Compound | inhibition |
| --- | --- |
| Cc1cccc(C)c1OP(C)(=O)Nc1ccc(SC(F)(F)F)cc1 (stereo unspecified) | 6.81% |
| CP(=O)(Oc1ccccc1)OC(c1ccccc1)C(F)(F)F (stereo unspecified) | 5.3% |
| CP(=O)(NC(=O)Nc1ccccc1)Oc1ccccc1 (stereo unspecified) | 7.58% |
| O=C(COc1ccccc1)OC1CN2CCC1CC2 (stereo unspecified) | 2.04% |
| Cc1cc(C)cc(OP(C)(=O)Nc2ccc(SC(F)(F)F)cc2)c1 (stereo unspecified) | -9.18% |
| CP(=S)(Nn1cnnc1)Oc1ccccc1 (stereo unspecified) | -4.08% |
| CP(=O)(Nc1ccccc1Br)Oc1ccccc1 (stereo unspecified) | 2.74% |
| Cc1cc(SC(NC=O)C(Cl)(Cl)Cl)ncn1 (stereo unspecified) | -3.2% |
| O=P(Nc1ccccn1)(c1cccc2ccccc12)c1cccc2ccccc12 | 5.83% |
| COc1ccccc1OP(C)(=O)Nc1ccccc1 (stereo unspecified) | 4.17% |
| Cc1cc(SC(NC(=O)c2ccccc2)C(Cl)(Cl)Cl)nc(C(C)C)n1 (stereo unspecified) | 28.7% |
| COc1ccccc1OP(C)(=O)Nc1ccc(C)cc1 (stereo unspecified) | 5.37% |
| Cc1ccc(NP(C)(=O)Oc2ccccc2)c(C)c1 (stereo unspecified) | 6.12% |
| CCOC(=O)c1ccc(NP(C)(=O)Oc2ccccc2)cc1 (stereo unspecified) | -23.8% |
| ClCCSc1nnc(-c2cccnc2)o1 | 10.8% |
| Cc1cc(C)cc(OP(C)(N)=O)c1 (stereo unspecified) | 2.58% |

| Compound | inhibition |
| --- | --- |
| CC(C)NC(=O)NP(=O)(Oc1ccccc1)Oc1ccccc1 | 4.41% |
| COc1ccccc1OP(C)(=O)Nc1cc(Cl)ccc1C (stereo unspecified) | -12.2% |
| CCN(CC)C(=S)SC(NC=O)C(Cl)(Cl)Cl (stereo unspecified) | 10.6% |
| COc1ccc(OP(C)(=O)Nc2cccc(F)c2)cc1 (stereo unspecified) | 2.62% |
| O=[N+]([O-])c1cc([N+](=O)[O-])c(-c2ccn[nH]2)s1 | 18.3% |
| O=[N+]([O-])c1ccc2c(c1)C=Nc1ccccc1O2 | 63.1% |
| Cc1ccc2nc3c(c(C)c2c1)CC(C(Cl)Cl)S3 (stereo unspecified) | -3.04% |
| CC(C)(C)c1ccc(OP(C)(=O)Nc2ccc(SC(F)(F)F)cc2)cc1 (stereo unspecified) | 38.5% |
| Cc1cccc(C)c1OP(C)(N)=O (stereo unspecified) | 11.6% |
| COc1ccc(N/C(=N/P(=O)(N2CCOCC2)N2CCOCC2)N2CCOCC2)cc1 | 8.87% |
| O=C(OC1CN2CCC1CC2)C12CC3CC(CC(C3)C1)C2 (stereo unspecified) | -8.57% |
| Cc1cc(=O)[nH]c(N[N+](=O)[O-])n1 | -25% |
| CCN(CC)CCCOC(=O)C(O)(c1ccccc1)c1ccccc1 | 3.4% |
| Cc1c2c(nc3ccccc13)SC(C(Cl)Cl)C2 (stereo unspecified) | 19.1% |
| COc1ccc2nc(NP(=O)(c3ccccc3)c3ccccc3)sc2c1 | 0.34% |

From PubChem BioAssay AID1362 (SRMLSC, 2008)
